Laboratory results from the supplement of paper PMC11732987, “Enantioselective OTUD7B fragment discovery through chemoproteomics screening and high-throughput optimisation” (Communications Chemistry, 2025).
Some of the results follow. The data scatter; read single values as rough.

By UniProt entry, the sequences of proteins in these tests, tags left out. Where a name states a change or a piece, a line headed by the entry shows the natural chain unless it says otherwise. Residues count along the entry.
UniProt Q9Y2U8: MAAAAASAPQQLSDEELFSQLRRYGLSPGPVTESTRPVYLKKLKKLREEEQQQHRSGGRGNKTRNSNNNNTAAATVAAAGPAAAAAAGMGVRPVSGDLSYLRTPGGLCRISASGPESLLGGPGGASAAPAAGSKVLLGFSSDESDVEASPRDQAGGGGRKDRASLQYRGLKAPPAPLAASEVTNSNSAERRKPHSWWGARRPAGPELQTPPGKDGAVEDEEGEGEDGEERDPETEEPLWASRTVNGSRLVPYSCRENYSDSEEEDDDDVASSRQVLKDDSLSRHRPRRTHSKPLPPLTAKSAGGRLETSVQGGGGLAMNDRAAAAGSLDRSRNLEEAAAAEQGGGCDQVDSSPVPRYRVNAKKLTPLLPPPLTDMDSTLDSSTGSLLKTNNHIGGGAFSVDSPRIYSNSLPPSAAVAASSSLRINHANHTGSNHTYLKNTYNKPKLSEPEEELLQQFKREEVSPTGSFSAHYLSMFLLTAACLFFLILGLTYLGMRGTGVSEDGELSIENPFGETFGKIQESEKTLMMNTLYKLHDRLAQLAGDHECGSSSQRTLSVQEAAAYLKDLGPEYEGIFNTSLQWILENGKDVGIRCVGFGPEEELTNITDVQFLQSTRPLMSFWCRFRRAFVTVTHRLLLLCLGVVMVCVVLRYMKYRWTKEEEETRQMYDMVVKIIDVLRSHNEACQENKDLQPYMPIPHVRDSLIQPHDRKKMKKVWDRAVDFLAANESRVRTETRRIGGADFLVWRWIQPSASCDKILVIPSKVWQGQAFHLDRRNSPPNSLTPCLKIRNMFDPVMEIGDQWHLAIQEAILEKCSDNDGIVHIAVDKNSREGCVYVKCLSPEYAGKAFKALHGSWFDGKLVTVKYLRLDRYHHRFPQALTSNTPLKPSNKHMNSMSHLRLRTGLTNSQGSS
UniProt Q9C0E8, 148-167: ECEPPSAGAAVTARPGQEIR
UniProt Q6P1Q0: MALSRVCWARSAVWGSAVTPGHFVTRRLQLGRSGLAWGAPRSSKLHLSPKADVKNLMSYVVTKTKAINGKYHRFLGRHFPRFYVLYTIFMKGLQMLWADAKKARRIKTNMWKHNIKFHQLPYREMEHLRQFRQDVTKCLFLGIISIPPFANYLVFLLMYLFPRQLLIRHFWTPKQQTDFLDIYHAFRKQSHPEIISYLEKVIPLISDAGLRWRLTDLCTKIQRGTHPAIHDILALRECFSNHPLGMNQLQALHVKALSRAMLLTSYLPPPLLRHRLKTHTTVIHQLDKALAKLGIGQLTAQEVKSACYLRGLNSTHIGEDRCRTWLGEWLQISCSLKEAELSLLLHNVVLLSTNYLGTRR
UniProt O14686, 1259-1283: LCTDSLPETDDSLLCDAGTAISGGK
UniProt O75427, 614-633: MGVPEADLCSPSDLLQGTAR
UniProt Q8NG31: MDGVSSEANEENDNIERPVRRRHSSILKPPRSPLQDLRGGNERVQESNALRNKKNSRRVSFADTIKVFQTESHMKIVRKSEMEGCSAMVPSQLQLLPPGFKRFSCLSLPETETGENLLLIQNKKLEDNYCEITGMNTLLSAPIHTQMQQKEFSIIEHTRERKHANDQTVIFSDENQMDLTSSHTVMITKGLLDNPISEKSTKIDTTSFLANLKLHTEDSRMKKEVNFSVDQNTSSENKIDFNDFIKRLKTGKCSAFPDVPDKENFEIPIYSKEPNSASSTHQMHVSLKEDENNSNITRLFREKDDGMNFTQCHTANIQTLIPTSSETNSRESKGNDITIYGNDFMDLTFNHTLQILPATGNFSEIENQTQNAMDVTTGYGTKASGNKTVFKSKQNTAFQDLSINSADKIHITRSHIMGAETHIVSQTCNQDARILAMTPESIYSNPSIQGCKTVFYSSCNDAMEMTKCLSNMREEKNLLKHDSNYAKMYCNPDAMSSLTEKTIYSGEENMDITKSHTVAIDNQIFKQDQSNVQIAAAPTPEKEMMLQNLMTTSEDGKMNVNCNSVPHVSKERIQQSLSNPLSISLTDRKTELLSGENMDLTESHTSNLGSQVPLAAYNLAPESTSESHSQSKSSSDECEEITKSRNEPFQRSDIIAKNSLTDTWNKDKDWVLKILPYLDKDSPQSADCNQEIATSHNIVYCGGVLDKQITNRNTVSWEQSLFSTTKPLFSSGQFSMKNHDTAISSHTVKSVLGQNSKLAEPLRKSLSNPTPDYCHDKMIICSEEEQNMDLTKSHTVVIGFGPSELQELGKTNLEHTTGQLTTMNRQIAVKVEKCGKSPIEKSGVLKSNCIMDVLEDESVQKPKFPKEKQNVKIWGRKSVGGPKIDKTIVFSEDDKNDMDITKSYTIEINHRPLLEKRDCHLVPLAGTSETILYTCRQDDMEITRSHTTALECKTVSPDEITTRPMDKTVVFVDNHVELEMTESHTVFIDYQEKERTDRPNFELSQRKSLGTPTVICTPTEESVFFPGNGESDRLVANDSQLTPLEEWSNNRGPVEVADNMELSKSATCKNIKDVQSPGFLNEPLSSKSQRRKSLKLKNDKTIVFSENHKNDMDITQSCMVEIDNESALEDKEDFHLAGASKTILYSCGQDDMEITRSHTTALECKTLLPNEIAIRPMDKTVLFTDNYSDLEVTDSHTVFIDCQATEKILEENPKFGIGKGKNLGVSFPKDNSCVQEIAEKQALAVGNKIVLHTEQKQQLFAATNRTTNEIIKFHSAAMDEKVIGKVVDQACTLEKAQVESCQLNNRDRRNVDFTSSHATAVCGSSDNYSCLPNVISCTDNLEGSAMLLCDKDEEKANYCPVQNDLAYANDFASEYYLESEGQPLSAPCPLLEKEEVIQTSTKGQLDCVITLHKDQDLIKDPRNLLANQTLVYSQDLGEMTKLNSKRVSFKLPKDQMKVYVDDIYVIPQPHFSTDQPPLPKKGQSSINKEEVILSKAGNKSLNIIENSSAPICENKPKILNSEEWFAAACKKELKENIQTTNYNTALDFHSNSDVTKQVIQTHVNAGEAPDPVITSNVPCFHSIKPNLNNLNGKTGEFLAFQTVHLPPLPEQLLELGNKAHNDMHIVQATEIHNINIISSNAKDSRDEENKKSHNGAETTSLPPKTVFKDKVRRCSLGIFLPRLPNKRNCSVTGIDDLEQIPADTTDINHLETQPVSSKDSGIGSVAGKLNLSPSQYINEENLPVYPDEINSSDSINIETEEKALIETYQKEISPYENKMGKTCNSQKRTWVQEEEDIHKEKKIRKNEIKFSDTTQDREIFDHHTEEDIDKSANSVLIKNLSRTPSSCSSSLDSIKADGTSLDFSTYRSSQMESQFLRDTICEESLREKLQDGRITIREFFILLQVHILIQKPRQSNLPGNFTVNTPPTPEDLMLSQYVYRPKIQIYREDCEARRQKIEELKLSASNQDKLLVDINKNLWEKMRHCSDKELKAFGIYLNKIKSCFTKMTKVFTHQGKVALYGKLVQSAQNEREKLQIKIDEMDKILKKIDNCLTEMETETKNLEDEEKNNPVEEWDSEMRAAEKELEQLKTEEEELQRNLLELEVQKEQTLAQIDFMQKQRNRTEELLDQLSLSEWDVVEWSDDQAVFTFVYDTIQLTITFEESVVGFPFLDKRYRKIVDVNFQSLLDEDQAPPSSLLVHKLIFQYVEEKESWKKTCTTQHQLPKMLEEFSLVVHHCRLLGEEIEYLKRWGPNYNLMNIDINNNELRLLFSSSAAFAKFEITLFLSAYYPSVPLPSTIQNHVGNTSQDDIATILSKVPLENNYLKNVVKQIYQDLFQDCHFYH
UniProt P48059, whole entry, looked up: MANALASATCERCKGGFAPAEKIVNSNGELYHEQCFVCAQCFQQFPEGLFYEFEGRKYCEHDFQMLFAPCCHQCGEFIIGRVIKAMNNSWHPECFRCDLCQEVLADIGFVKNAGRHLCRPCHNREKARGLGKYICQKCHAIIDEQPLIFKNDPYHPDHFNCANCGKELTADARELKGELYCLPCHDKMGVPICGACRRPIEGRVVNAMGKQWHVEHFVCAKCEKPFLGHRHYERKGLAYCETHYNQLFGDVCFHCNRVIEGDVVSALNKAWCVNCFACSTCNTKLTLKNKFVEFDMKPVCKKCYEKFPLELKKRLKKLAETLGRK
UniProt Q1L5Z9: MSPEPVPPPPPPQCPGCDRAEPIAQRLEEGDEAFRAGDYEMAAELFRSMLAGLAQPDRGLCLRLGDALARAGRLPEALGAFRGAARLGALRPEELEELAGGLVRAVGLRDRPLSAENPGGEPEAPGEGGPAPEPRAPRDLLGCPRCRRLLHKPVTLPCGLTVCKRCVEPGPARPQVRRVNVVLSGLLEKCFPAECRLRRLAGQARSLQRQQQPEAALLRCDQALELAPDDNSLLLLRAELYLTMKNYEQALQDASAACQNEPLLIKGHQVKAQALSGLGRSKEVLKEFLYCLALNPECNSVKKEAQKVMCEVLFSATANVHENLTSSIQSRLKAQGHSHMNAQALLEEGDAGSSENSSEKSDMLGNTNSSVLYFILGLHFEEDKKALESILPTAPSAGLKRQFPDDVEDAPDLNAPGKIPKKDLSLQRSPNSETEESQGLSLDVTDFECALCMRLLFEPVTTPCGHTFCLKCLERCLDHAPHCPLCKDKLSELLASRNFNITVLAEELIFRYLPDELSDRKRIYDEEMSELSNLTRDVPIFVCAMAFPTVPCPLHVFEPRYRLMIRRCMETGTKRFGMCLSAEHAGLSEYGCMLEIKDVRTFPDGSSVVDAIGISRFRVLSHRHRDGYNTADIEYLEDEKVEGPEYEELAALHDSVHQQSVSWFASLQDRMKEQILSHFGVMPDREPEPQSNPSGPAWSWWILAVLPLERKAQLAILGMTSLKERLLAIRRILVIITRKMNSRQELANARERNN
UniProt Q9BU23, 681-701: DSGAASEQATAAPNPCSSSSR
UniProt P10721, whole entry, looked up: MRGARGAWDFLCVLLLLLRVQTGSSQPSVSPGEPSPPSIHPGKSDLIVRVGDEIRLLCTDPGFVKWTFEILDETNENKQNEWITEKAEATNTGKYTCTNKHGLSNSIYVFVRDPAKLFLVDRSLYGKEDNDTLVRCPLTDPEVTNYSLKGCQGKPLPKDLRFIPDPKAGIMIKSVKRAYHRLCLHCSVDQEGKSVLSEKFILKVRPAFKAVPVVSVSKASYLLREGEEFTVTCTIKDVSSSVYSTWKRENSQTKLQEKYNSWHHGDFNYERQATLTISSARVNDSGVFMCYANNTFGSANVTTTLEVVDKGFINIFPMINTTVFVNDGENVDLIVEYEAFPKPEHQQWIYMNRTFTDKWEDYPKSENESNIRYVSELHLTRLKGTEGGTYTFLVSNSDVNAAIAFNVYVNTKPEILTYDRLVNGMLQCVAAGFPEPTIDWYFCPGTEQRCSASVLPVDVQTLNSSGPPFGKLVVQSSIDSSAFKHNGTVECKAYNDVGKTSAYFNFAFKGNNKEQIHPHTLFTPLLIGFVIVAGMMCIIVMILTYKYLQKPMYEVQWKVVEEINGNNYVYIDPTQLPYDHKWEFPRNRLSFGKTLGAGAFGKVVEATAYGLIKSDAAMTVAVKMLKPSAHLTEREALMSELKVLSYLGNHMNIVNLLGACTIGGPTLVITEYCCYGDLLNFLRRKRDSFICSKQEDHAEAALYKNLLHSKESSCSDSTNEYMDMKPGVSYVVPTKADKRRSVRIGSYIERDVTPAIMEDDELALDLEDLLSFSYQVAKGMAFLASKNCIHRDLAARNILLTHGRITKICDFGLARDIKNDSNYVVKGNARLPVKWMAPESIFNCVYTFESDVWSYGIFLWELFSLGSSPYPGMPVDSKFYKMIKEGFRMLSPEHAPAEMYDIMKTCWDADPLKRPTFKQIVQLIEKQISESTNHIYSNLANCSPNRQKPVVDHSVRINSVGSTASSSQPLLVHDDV
UniProt Q03164, 2071-2093: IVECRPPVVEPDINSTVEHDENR
UniProt Q96EK5: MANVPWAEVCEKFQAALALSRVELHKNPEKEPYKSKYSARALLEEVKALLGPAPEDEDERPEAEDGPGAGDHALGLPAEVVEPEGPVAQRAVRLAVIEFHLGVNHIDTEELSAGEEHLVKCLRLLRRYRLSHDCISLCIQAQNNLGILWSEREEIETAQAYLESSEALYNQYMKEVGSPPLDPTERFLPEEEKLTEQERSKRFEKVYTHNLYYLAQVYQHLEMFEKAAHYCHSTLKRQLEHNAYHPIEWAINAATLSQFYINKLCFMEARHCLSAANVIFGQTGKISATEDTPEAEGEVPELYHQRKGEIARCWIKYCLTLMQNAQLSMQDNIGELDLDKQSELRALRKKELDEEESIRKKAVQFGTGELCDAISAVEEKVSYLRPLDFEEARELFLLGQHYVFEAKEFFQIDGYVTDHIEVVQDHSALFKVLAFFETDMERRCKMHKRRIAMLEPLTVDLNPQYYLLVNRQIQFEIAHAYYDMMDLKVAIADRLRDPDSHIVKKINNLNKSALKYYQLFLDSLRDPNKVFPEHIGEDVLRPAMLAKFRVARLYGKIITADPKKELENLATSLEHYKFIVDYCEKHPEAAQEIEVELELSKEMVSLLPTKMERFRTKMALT
UniProt P09382: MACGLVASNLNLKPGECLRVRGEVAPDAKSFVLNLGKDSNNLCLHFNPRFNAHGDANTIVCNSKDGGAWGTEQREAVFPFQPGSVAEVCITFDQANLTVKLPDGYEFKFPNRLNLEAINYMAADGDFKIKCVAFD

Compound: ClCC(=O)N[C@H]1CCCc2ccccc12
Assay: log2 mean competition ratio of IA-DTB cysteine labelling (DMSO/compound) (log2 ratio); higher = stronger cysteine engagement by compound
Details: 200 µM; treatment time: 4 h; cell line lysate: HEK293T
Procedure: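 IA-DTB competitive cysteine chemoproteomics in HEK293T RIPA lysate. Lysates were treated with compound 29 or 30 at 50 or 200 µM for 4 h, then IA-DTB (500 µM, 1 h), trypsin-digested, NeutrAvidin-enriched and analysed by diaPASEF. Competition ratio = intensity DMSO / intensity compound (n=4 treated, n=64 DMSO); binding: mean log2 CR ≥ 1 and p ≤ 0.05 plus QC filters. Target is the cysteine site.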

Target	log2 mean competition ratio
LEMD3 C108 (UniProt Q9Y2U8)	0.18
LNPK C149 (UniProt Q9C0E8)	-0.138
KLC4 C489 (UniProt Q9NSK0)	0.115
LETMD1 C218 (UniProt Q6P1Q0)	-0.0295
LMNB2 C212 (UniProt Q03252)	0.083
KMT2D_(C1260,C1260,C1273,C1273) (UniProt O14686)	0.0814
LPP C364 (UniProt Q93052)	-0.194
LRCH4 C622 (UniProt O75427)	-0.118
LARP4B C590 (UniProt Q92615)	0.0498
KNL1 C2051 (UniProt Q8NG31)	-0.101
LIMS1 C138 (UniProt P48059)	-0.0327
LIMS3;LIMS4 C10;(C10)	-0.032
KTN1 C1105	0.118
LATS2 C813 (UniProt Q9NRM7)	0.109
LIMS1 C300 (UniProt P48059)	0.0971
KNTC1 C967 (UniProt P50748)	-0.192
LRPPRC C130	-0.104
LONRF2 C220 (UniProt Q1L5Z9)	0.54
LRCH3 C227 (UniProt Q96II8)	0.188

Target	log2 mean competition ratio
KMT2B C1268 (UniProt Q9UMN6)	0.0557
LIG3 C929 (UniProt P49916)	0.0786
KNL1 C638 (UniProt Q8NG31)	0.17
LMF2 C696 (UniProt Q9BU23)	0.112
LRBA C832	0.0186
LEMD3 C838 (UniProt Q9Y2U8)	0.112
KIT C691 (UniProt P10721)	0.0969
LARP4B C679 (UniProt Q92615)	-0.192
KTN1 C736	-0.216
LIG3 C336 (UniProt P49916)	0.0724
KMT2A C2074 (UniProt Q03164)	-0.247
KNL1 C774 (UniProt Q8NG31)	0.0687
LRPPRC C1043	-0.0197
KLHL11 C526 (UniProt Q9NVR0)	-0.072
LAS1L C690 (UniProt Q9Y4W2)	0.213
KMT2A C1536 (UniProt Q03164)	0.0705
KIFBP C583 (UniProt Q96EK5)	-0.316
LGALS1 C61 (UniProt P09382)	-0.646

Laid out differently: entries from further up.
Target | log2 mean competition ratio
KMT2B C1268 (UniProt Q9UMN6) | 0.0557
KNL1 C638 (UniProt Q8NG31) | 0.17
LRBA C832 | 0.0186
LEMD3 C838 (UniProt Q9Y2U8) | 0.112
KIT C691 (UniProt P10721) | 0.0969
KTN1 C736 | -0.216
LRPPRC C1043 | -0.0197
KMT2A C1536 (UniProt Q03164) | 0.0705
